Results published in PubChem BioAssay AID540276 (National Center for Advancing Translational Sciences (NCATS), 2011).
Hit rate of the full screen: of about 300,000 compounds, about 5,400 (1.8%) were called active. The inconclusive results got no clear call from the source; some entries with a clear call stand among them for comparison. Calls follow the shape of the full dose curve; tested in HEK293 cells. Potencies of inconclusive entries are doubtful fits and often do not repeat.

assay: qHTS for inhibitors of binding or entry into cells for Marburg Virus; details: Marburg virus pseudotyped entry inhibition, cell reporter; activity change, negative = inhibition: at 37.8 µM (top of the series) unless noted
% is scaled to controls: 0 for no effect and ±100 for the full control effect; potency is read from the fitted curve at half-maximal effect.

| SMILES | Potency | activity change, negative = inhibition |
| --- | --- | --- |
| O=C(Nc1ncccc1O)c1ccc(S(=O)(=O)N2CCCC2)cc1 | inconclusive: 6.31 µM [activator, full curve, poor fit] | – |
| Cc1cccc(/C=C/c2nc3ccccc3c(=O)[nH]2)c1 | inconclusive: 2.82 µM [inhibitor, full curve, poor fit] | – |
| Cc1ccc(C)c(N2CCN(c3ccc(N4C(=O)COCC4=O)cc3[N+](=O)[O-])CC2)c1 | inconclusive: 0.1 µM [activator, full curve, poor fit] | – |
| CC(=O)C1=C(Nc2ccccc2)CC(C)(O)C(C(C)=O)C1c1ccccc1 (stereo not drawn) | inconclusive: 3.98 µM [inhibitor, single point] | – |
| COc1ccc(NC(=O)CCC2CCCCC2)cc1S(=O)(=O)N1CCCCC1 | inconclusive: 0.355 µM [inhibitor, partial curve, poor fit] | – |
| Cc1c(C(=O)N2CCC(C)CC2)sc2ncnc(N(C)c3ccccc3)c12 | inconclusive: 20.6 µM [inhibitor, partial curve, poor fit] | – |
| CCCOc1ccc(CCCN=C(N)N)cc1Cl | inconclusive: 11.2 µM [inhibitor, single point] | – |
| CCCCn1c(N)c(N(CCOC)C(=O)c2cccc(-n3cnnn3)c2)c(=O)[nH]c1=O | inconclusive: 5.62 µM [activator, single point] | – |
| Cc1cccc2nc(-c3cccc(NC(=O)Cc4ccccc4)c3)cn12 | inconclusive: 32.6 µM [inhibitor, single point] | – |
| CC(C)(C)n1nc2c(c1NC(=O)c1ccc(F)c(F)c1)CS(=O)(=O)C2 | inconclusive: 25.1 µM [inhibitor, single point] | – |
| COc1cc(-c2nnc(Sc3ccc(C(F)(F)F)cc3[N+](=O)[O-])o2)cc(OC)c1OC | inconclusive: 10.3 µM [inhibitor, partial curve, poor fit] | – |
| COc1ccc2nc(N(Cc3ccccc3)C(=O)CCNC(C)=O)sc2c1 | – | inactive: -17.9% [at 46.1 µM] |
| COc1ccc(-c2cc3cc(OC)c(OC)cc3c(C)n2)cc1 | – | inactive: -16.4% [at 46.1 µM] |
| O=C(Cc1ccccc1)NNC(=O)C1CC=CCC1 (stereo not drawn) | – | inactive: 2.65% [at 46.1 µM] |
| NS(=O)(=O)c1ccc(Nc2nc(-c3ccc(F)cc3)cs2)cc1 | inconclusive: 35.5 µM [inhibitor, single point] | – |
| COc1ccc(Cl)cc1N(CC(=O)NCCSc1ccccn1)S(=O)(=O)c1ccccc1 | – | inactive: -23.1% [at 46.1 µM] |
| COC(=O)c1ccc(C(=O)OC)c(NC(=O)CN2CCN(c3ccc(OC)cc3)CC2)c1 | – | inactive: -1.44% [at 46.1 µM] |
| CN(C(=O)COC(=O)c1ccc(Cl)c(S(=O)(=O)NCc2ccccc2)c1)C1CCS(=O)(=O)C1 (stereo not drawn) | – | inconclusive: 11% [activator] |

Pulled by structure from above (2):

| SMILES | Potency | activity change, negative = inhibition |
| --- | --- | --- |
| COc1ccc(NC(=O)CCC2CCCCC2)cc1S(=O)(=O)N1CCCCC1 | inconclusive: 0.355 µM [inhibitor, partial curve, poor fit] | – |
| COc1ccc(Cl)cc1N(CC(=O)NCCSc1ccccn1)S(=O)(=O)c1ccccc1 | – | inactive: -23.1% [at 46.1 µM] |
